The target of this experiment is T1, acid-sphingomyelinase-like phosphodiesterase 3b (SMPDL3B) (human (endogenous in U2OS)) (UniProt Q92485).
T1 sequence: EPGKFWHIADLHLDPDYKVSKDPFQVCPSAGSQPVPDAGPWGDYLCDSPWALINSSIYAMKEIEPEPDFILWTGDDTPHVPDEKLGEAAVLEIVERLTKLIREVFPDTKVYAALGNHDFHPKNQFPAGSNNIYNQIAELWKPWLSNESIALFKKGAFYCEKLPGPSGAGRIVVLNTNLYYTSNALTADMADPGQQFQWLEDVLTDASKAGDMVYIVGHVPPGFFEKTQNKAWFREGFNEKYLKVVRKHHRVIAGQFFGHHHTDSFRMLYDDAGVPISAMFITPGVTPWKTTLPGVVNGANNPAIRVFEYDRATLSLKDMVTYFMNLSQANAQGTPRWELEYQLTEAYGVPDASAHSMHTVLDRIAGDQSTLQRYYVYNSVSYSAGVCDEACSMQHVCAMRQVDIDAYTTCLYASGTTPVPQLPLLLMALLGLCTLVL
Kind of experiment: cross-linking + SEC; protein correlation profiling: U2OS cells crosslinked in vivo with 6% formaldehyde (30 min, room temperature), lysed in 4% SDS with TCEP, denaturing SEC (BioBasic SEC1000, 0.2% SDS, 100 mM NaCl, 10 mM NaPO4 pH 6.0, 30 °C), 48 fractions, crosslinks reversed by heat, LC-MS/MS, LFQ elution profiles, n = 3.

This note sets out measurements from article PMC4937518.

Results are given in words; binding and its absence hold for the method and conditions named. Binding seen in cells or lysates may run through a third protein. A result given as binding can be weak or reduced; the word gives no strength.

On to “acid ceramidase (ASAH1) (human (endogenous in U2OS)) (enzyme)”, for which the binding entry is listed as “binds”.
